US5698575A, “Chromone compounds, pharmaceutical compositions containing the same, and use of the same” (Kureha Chemical Industry Co., Ltd., priority 1995, dated 1997)
At least one structure is not confirmed: it was looked up by name or label, or the drawing left a doubt.

Experiments:
gelatinase A (MMP-2) = assay: Inhibitory activity to gelatinase A (MMP-2) production in human fibrosarcoma cells (western blotting); assay type: cell-based; details: HT-1080 cells, 3 days cultivation, culture supernatant; FIG. 2
[1] = tested on: interstitial collagenase (MMP-1); assay: Inhibitory activity to interstitial collagenase (MMP-1) in rabbit cartilage organ culture; assay type: cell-based; details: IL-1α 100 units/ml stimulation, 48 hours cultivation, compared with IL-1α only; FIG. 1

Row | SMILES | production of MMP-2 (bands of proform, active intermediate and active form) (gelatinase A (MMP-2)) | activity of MMP-1 in the culture supernatant [1]
1 | O=c1cc(-n2cccc2)sc2ccccc12 [2-pyrrolylthiochromone] | inhibit the production of MMP-2 according to the concentration thereof | 
2 | COc1cc(OC)c2c(=O)cc(-n3cnc4ccccc43)oc2c1 [2-benzimidazolyl-5,7-dimethoxychromone] |  | inhibited the activity of MMP-1
